Laboratory results taken from article PMC11674332.
These are yes or no findings as the source states them, for the method shown.

Molecular target: T1, human gamma S crystallin (human), P22914
T1 chain: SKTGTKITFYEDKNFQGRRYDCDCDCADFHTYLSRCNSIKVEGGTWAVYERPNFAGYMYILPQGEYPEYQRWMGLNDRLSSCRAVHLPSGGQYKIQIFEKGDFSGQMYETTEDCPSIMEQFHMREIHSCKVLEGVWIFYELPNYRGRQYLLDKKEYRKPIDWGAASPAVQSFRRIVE
Test: dynamic light scattering; 50 μM protein, 37 °C, no metal ions; samples centrifuged and passed through a 0.22 μm filter before measurement; both purified
Conditions: remark: other sources report otherwise

B1: human gamma S crystallin, P22914 2-178 (protein)
chain: SKTGTKITFYEDKNFQGRRYDCDCDCADFHTYLSRCNSIKVEGGTWAVYERPNFAGYMYILPQGEYPEYQRWMGLNDRLSSCRAVHLPSGGQYKIQIFEKGDFSGQMYETTEDCPSIMEQFHMREIHSCKVLEGVWIFYELPNYRGRQYLLDKKEYRKPIDWGAASPAVQSFRRIVE
- binding: no binding (tested: 50 μM)
